# Assay results taken from US20150218523A1, “MANUFACTURE OF VASCULAR SMOOTH MUSCLE CELLS AND THE USE” (Agency for Science, Technology and Research, priority 2014, published 2015).
# System: NCSMCs derived from hESC (H9)
# Conditions: NCSMCs at 1% oxygen, drug 48 hr (atorvastatin 0.5 μM), then labeled Aβ40 (2 mg/ml) for 1 hr; p=0.0492
structure (smiles),measurement,value
CC(C)c1c(C(=O)Nc2ccccc2)c(-c2ccccc2)c(-c2ccc(F)cc2)n1CC[C@@H](O)C[C@@H](O)CC(=O)O [atorvastatin],"Aβ40 uptake over the vehicle controls (cell-associated Aβ, mean fluorescence brightness normalized to no-uptake control)",significantly increased
